Assay results reported in US20240156790A1, “COMPOUNDS, COMPOSITIONS, AND METHODS FOR MODULATING FERROPTOSIS AND TREATING EXCITOTOXIC DISORDERS” (THE TRUSTEES OF COLUMBIA UNIVERSITY IN THE CITY OF NEW YORK, priority 2018, published 2024).
Some results were stated once for a whole list of compounds, not compound by compound.

Assay: Microsomal stability, mouse liver microsomes (Table 1)
Format: in vitro ADME, Mouse: CD1
Conditions: in either mouse or human liver microsomes
Description: Each compound (1 μM) is incubated with mouse plasma, for 4 hours at 37° C., with shaking at 100 rpm. The concentration of compound in the buffer and plasma chambers is determined using LC-MS/MS. Metabolism of each compound is predicted using Sites of Metabolism (Schrodinger Suite), which combines intrinsic reactivity analysis (Hammett-Taft) with induced fit docking against 2C9, 2D6 and 3A4. This approach identifies 90% of known metabolism sites and has a false positive rate of 17%. The in vitro metabolic stability of each compound in mouse liver microsomes is determined. Pooled mouse liver microsomes are prepared and stored at −80° C. until needed. […]

Compound | T1/2
CCCCCCNc1cc(C(=O)OC(C)(C)C)c(F)cc1NC12CC3CC(CC(C3)C1)C2 [CFI-A8] | > 2 h
CCCCCCNc1cc(C(=O)OC(C)(C)C)c(C)cc1NC12CC3CC(CC(C3)C1)C2 [CFI-A9] | > 2 h
